Laboratory results: article PMC6629679
These are yes or no findings as the source states them, for the method shown. In cells and extracts the contact can be indirect. Some results given as binding are weak or reduced against the parent protein; the word gives no strength. Tags and fused reporters may be left off the sequences shown.

Chains of the proteins cited; added tags and fusions are not shown.
UniProt Q12923: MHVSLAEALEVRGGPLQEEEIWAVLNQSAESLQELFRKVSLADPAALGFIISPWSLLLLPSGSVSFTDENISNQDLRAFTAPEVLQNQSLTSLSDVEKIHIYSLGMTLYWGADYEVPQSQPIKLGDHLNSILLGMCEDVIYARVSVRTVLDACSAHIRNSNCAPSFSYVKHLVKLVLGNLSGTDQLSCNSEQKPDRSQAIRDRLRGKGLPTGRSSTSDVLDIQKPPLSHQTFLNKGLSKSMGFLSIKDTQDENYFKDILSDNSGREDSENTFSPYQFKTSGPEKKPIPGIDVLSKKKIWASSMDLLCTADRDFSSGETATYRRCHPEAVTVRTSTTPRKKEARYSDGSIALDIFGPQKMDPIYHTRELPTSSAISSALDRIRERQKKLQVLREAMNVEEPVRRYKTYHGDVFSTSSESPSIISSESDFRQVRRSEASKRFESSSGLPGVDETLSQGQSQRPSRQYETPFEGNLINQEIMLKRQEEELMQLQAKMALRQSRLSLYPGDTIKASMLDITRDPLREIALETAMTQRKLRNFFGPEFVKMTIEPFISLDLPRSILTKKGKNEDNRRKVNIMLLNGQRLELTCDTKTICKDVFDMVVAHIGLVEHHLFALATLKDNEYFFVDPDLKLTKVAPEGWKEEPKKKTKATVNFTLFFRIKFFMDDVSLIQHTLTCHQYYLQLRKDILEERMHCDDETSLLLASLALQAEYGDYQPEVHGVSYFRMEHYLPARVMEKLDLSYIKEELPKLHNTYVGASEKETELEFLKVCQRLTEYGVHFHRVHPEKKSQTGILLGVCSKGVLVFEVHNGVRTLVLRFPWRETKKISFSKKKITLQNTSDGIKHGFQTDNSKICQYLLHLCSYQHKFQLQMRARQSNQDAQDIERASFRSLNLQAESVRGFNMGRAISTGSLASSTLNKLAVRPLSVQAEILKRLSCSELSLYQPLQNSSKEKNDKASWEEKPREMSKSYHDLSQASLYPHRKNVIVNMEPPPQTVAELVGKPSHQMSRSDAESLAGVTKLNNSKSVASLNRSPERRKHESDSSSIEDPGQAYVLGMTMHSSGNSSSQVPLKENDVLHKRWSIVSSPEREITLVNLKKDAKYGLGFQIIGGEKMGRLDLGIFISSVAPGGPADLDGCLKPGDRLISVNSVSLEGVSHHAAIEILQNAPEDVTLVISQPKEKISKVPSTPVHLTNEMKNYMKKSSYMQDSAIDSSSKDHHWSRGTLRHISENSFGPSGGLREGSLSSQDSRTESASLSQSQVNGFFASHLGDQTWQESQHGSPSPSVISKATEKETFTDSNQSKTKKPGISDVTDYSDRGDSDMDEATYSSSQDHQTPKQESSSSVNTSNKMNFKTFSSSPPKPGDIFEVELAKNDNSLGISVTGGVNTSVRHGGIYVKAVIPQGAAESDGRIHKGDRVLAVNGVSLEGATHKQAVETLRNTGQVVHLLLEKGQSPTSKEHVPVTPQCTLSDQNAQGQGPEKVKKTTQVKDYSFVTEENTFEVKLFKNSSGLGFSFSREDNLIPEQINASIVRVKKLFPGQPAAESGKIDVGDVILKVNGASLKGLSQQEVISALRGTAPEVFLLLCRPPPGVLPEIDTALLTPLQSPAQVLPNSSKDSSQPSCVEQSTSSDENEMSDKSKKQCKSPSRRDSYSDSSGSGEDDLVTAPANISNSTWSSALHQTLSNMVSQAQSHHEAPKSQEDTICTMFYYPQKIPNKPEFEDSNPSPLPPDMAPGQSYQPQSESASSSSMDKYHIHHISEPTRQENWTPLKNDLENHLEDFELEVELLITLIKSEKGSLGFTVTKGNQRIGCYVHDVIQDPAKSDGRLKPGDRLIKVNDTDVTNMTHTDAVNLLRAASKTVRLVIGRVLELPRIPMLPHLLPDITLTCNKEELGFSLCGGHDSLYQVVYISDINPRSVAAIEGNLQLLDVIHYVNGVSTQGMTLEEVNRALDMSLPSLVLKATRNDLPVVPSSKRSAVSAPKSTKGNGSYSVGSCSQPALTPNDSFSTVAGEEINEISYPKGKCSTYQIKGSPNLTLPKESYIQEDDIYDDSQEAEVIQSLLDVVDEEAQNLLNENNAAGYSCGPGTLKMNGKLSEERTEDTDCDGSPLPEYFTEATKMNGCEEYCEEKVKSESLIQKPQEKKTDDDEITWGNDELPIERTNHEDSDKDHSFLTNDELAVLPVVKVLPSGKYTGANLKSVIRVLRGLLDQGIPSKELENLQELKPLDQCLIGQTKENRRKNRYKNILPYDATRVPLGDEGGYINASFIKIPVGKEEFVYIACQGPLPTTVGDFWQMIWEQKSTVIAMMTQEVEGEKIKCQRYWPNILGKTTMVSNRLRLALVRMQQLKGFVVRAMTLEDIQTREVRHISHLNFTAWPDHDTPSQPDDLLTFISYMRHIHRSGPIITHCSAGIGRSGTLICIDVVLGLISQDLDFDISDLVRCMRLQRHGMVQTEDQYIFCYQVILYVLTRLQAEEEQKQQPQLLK

T1: GFP-ENTR1 wild-type (endosome associated trafficking regulator 1, N-terminal EGFP) (UniProt Q96C92)
T1 sequence: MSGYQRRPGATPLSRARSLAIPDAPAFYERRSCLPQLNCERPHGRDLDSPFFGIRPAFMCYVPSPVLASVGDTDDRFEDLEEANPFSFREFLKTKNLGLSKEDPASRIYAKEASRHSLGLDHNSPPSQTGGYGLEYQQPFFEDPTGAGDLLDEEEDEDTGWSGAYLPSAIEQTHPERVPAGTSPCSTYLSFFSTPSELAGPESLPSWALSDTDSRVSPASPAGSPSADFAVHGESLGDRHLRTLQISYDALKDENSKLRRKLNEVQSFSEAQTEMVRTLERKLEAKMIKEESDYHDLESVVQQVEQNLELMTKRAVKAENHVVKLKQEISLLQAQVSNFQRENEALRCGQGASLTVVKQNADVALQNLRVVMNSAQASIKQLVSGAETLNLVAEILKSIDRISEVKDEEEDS

T2: GST-ENTR1 (fusion protein of GST and full length ENTR1) (UniProt Q96C92)
T2 sequence: T1 sequence

B1: Pallidin, endogenous (protein, UniProt Q9UL45 1-172)
chain: MSVPGPSSPDGALTRPPYCLEAGEPTPGLSDTSPDEGLIEDLTIEDKAVEQLAEGLLSHYLPDLQRSKQALQELTQNQVVLLDTLEQEISKFKECHSMLDINALFAEAKHYHAKLVNIRKEMLMLHEKTSKLKKRALKLQQKRQKEELEREQQREKEFEREKQLTARPAKRM

How the values were obtained:
[1] = biological target: T1, GFP-ENTR1 wild-type (endosome associated trafficking regulator 1, N-terminal EGFP); assay: co-IP; HeLa cells transfected with GFP-tagged ENTR1 constructs; GFP-Trap_A for 3 h at 4 °C in lysis buffer (50 mM HEPES pH 7.5, 150 mM NaCl, 1.5 mM MgCl2, 1 mM EDTA, 10% glycerol, 1% Triton X-100); western blot for endogenous PTPN13
[2] = biological target: T2, GST-ENTR1 (fusion protein of GST and full length ENTR1); assay: pull-down; GST fusion protein or GST control on beads, incubated with HeLa cell lysate for 4 h at 4 °C; washed five times with 0.5% Triton X-100 in PBS; western blot; only the target purified

Molecule	binding [1]	binding [2]
PTPN13, endogenous full-length (from UniProt Q12923 1-2485)	binds	
B1		no binding
